The subject of data set [1] is Tcf4 (Tcf7l2), [Apc]ko-TOTAL liver nuclear extract + beta-catenin, [Apc]ko-TOTAL liver nuclear extract. Nature of the data set: EMSA. The note with it: EMSA with liver nuclear extracts and 32P probes as in Bobard et al., 2005, pH and temperature not given, protein in an extract, label: 32P. For orientation: A gel shift assay detects complexes by their altered migration in electrophoresis.

Chains of the proteins cited; added tags and fusions are not shown. Chains listed by the source or under a name are the forms on record and can include a tag or linker.
UniProt Q924A0, whole entry: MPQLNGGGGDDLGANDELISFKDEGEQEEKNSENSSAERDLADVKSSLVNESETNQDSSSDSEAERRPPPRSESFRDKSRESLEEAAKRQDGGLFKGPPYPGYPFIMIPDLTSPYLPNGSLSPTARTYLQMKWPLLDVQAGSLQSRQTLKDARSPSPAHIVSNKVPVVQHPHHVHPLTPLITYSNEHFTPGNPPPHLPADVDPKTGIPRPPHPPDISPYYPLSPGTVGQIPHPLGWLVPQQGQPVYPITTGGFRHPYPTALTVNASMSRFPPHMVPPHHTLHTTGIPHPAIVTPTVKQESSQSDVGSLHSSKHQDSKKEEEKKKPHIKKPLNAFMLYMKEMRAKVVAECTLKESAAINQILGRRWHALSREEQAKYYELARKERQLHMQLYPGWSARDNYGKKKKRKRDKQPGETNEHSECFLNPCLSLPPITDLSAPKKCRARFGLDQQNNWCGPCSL
Tcf4 (Tcf7l2), [Apc]ko-TOTAL liver nuclear extract + beta-catenin, [Apc]ko-TOTAL liver nuclear extract, one chain, as listed by the source, chain 2 of 2: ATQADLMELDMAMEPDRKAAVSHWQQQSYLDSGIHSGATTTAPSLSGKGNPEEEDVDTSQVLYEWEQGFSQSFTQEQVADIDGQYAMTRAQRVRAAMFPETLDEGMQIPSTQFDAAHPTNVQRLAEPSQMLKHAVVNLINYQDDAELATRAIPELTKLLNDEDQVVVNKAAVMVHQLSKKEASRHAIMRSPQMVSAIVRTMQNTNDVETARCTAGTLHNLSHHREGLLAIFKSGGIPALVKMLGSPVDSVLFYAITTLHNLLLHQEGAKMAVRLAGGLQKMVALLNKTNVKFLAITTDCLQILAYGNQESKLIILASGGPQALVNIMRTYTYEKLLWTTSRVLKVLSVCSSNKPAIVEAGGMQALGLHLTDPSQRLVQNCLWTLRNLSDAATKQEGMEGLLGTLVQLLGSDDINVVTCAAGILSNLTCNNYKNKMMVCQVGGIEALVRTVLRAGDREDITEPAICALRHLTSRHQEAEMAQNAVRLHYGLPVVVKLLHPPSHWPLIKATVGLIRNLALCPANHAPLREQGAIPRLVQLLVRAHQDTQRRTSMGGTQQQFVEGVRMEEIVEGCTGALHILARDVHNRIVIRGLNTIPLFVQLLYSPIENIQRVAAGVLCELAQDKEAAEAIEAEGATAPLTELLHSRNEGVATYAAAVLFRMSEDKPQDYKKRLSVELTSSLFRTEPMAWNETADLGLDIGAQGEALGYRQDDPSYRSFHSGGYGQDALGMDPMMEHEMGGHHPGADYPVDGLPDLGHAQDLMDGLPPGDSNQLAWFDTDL
Tcf4 (Tcf7l2), [Apc]ko-TOTAL liver nuclear extract + beta-catenin, [Apc]ko-TOTAL liver nuclear extract, one chain, as listed by the source, chain 1 of 2: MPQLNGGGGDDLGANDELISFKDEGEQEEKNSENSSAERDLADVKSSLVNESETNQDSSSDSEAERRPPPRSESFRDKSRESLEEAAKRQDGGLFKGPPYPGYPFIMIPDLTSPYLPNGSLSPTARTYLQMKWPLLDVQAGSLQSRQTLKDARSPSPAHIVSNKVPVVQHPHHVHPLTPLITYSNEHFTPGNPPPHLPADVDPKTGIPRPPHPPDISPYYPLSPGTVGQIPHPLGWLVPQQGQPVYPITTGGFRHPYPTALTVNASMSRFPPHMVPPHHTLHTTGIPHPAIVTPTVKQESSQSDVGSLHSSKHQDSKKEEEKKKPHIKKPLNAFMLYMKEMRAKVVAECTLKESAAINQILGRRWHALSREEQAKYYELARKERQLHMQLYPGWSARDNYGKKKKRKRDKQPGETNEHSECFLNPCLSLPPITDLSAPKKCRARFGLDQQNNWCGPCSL

The test system is the same in data set [2]. The experiment in a line: competition with a labelled probe. The note with it: EMSA with liver nuclear extracts and 32P probes as in Bobard et al., 2005, pH and temperature not given, protein in an extract.
The target in data set [3] is Tcf4 (Tcf7l2), WT liver nuclear extract (Mus musculus) (UniProt Q924A0). The experiment in a line: EMSA. The note with it: WT liver nuclear extract; EMSA with liver nuclear extracts and 32P probes as in Bobard et al., 2005; pH and temperature not given; protein in an extract; label: 32P.

The text below walks through data of paper PMC7641585.

Construct, isoform or probe ends are uncertain for at least one entry. At least one result comes from cells or an extract, where the contact may be indirect. For some assays here: Weaker means in comparison with the reference protein, sequence or condition of that experiment.

“CATCCCCCTTTGATCTTACC (double strand) [Wnt-responsive element (WRE)]”: the binding result in data set [1] is listed as “binds”.

Turning to “CATCCCCCTTTGATCTTACC (double strand) [WRE cold competitor]”, the binding result in data set [2] (cold WRE against 32P-DR2) was “binds”.

Consider “GCCCGGCTGACCTCTTGACCCCTCTGGGCTTGAG (double strand) [DR2 cold competitor (HNF4)]”, for which the binding result in data set [2] (cold DR2 (HNF4) against 32P-WRE) is “binds”.

With “GCCCGGCTGACCTCTTGACCCCTCTGGGCTTGAG (double strand) [Epo-3'E HRE (DR2), HNF4-responsive element]”, the binding result in data set [3] is reported as “binds more weakly”; in data set [1] ([Apc]ko-TOTAL liver nuclear extract, stronger binding, supershift from beta-catenin) it was “binds”.
